# Screening data

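Luminescence from an EWS-FLI1 target-promoter (NR0B1) reporter, set against a CMV-promoter reporter, two days after silencing single genes in TC32 Ewing sarcoma cells. Each siRNA was applied at 20 nM. A z-score of the log NR0B1-over-CMV signal, less the median of siRNAs with the same seed; more negative means a stronger specific loss of the NR0B1 reporter.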

This is part of the screen; most of the strongest results are not listed here. Sequences are the guide (antisense) strand, without overhang.

| # | siRNA | gene | seed-corrected z-score |
|---|---|---|---|
| 1 | `AGUGGAACCGAUACUUCCG` | SPDYE10P | -0.6218 |
| 2 | `UUAAGAUUAGUGGUAACUG` | C8orf59 | -0.5906 |
| 3 | `UGUUGAUCACCUCUUUCCC` | RNASEH1 | -1.311 |
| 4 | `UCAGGUCAUACAGGUAGUG` | UNC93B1 | 0.2255 |
| 5 | `UGAUAUACUCGGAUGGACC` | SH2B1 | 0.2045 |
| 6 | `UUGGAGUUUAUUUUCCGCU` | PPDPF | 0.9827 |
| 7 | `UGACUUAUCACUGUAUCAC` | PTGR2 | -0.1189 |
| 8 | `AAUGUGAACAACAUUCCCG` | RPL22L1 | -0.2831 |
| 9 | `UAAGGUUUUAUGGAACUCG` | NCF1 | 0.1882 |
| 10 | `UUCUUGUACGGUUUGACUG` | SRRM1 | 0.1604 |
| 11 | `UUUCAGUGCCUCGAUAUCC` | RPL10AP3 | 0.9147 |
| 12 | `UUAUUCUCAUUUCUAGACC` | FSIP1 | -0.3956 |
| 13 | `AUUGUAGAAAACAUCUACU` | C12orf65 | 0.4688 |
| 14 | `AUCUUGAAACCGUAGAGCC` | CSNK2B | 0.6222 |
| 15 | `UGCACAUGAACAAUGCUGU` | DEFB132 | 1.284 |
| 16 | `UUUAUUCUUGAGCCCAUUG` | SULT1A4 | -0.2103 |
| 17 | `AUAGGAAUUAGGUUACGGG` | PRKCG | 0.5304 |
| 18 | `UUGGAAAUUAGGGAACCUC` | HIF1AN | 0.1963 |
| 19 | `AGUGGAAUCCGCAUCUUCC` | NACAD | -0.08379 |
| 20 | `UUCUUGUACUUAUAAGUUG` | MMP20 | 0.1155 |
| 21 | `UCCUCUUCAACAAUUUGUC` | ZNF133 | -0.03478 |
| 22 | `UUCUUUGCUGUUGAGCACG` | PIGL | -0.9078 |
| 23 | `UCCUCAAGAACUCUCAGUC` | GJA9 | -0.396 |
| 24 | `UUUCGAUUUUCUUUAAACG` | TMX3 | 0.3987 |
| 25 | `AAAGUCUGCAUGACAUUUG` | BHMT2 | 0.415 |
| 26 | `AAUGUCAAACCCAUCACCG` | OR51B2 | -0.5054 |
| 27 | `UCAGCAAUCACCGUGAUGG` | CPNE4 | 0.5468 |
| 28 | `UUCUUGUCUGGUUAGAUGG` | ERO1A | -0.3432 |
| 29 | `UAGGAGACCCACGAUGAGC` | POR | -0.1898 |
| 30 | `AAAUGUCAGAACAGUAGGC` | ABCG1 | 0.1263 |
| 31 | `UGUUUUUCUUGCUCGUUCG` | C18orf54 | 0.1252 |
| 32 | `UUCAUAAUAGCGAAGCUUC` | MPP3 | 0.8557 |
| 33 | `AAAUGGAGAUUUUAUUGCC` | KLRC4 | 0.05249 |
| 34 | `UAUAGUAGAUUCUUGCAGC` | HEPH | -0.1863 |
| 35 | `AUAGCUACCACUGGAGUCC` | AARS | -0.02085 |
| 36 | `UAAUAUAGUCCGCAUUUCC` | JADE2 | -1.17 |
| 37 | `UGUCUUUGCGUAGUGGUUC` | TTLL8 | -1.7 |
| 38 | `UCAGUAGAUAGAGAUUAGC` | OR52R1 | -0.07408 |
| 39 | `UUUCCUCUGAGAUCCCGAC` | PTRF | -1.65 |
| 40 | `UGUAUUUCUAAACUUGUAG` | SKINT1L | -1.181 |
| 41 | `AUAGUAGGAGUAGGUCUCG` | DEGS2 | 0.3783 |
| 42 | `UUUGAUUUUAGACCAUUGG` | FAM180A | 0.3931 |
| 43 | `UCCGAGUAAAGUACUUGAG` | LCN8 | -0.1534 |
| 44 | `UUUCUGGAGAUCAAACAGC` | WDR34 | 0.1831 |
| 45 | `UUCUCGAACAUGUCUUCGC` | FOXL2 | 0.02155 |
| 46 | `AUCUUUGUAGACGAUGUCC` | MCUR1 | 0.201 |
| 47 | `UUCUUAACCAAAGUCUUUC` | MTFR1 | 0.9858 |
| 48 | `AAUAGAACCAGGAAGACCC` | ECM2 | -0.5905 |
| 49 | `ACUGUUCUUGUCAAAGUCC` | CYP1A2 | -0.6205 |
| 50 | `AUAGCGAAGACUCUCAGCC` | CEP78 | 0.6153 |
| 51 | `AACUUGUCCACCCUUUUUG` | CSGALNACT1 | -0.4748 |
| 52 | `UUCGGAAAUCAAAAUACCC` | PGBD1 | 0.7397 |
| 53 | `UCCGGAUAUUUGGUGCUCC` | MIR7-3HG | 0.1781 |
| 54 | `UGUUGCACCAUCCACUUUC` | FBXO27 | 0.3195 |
| 55 | `UUUACACUGAUCACAAGUC` | BNC2 | 0.6869 |
| 56 | `AAACCUCCUCUGGACAUUC` | FAM192A | 0.01666 |
| 57 | `UUCGAGAACAGGGAAUAAC` | ALDH5A1 | 0.2064 |
| 58 | `UCUGAUUAUAAAUACGUUC` | FANCM | -0.1276 |
| 59 | `UUUGAGUUUAUCCUGCACG` | TNPO2 | 0.07177 |
| 60 | `AUAAGAGUCUGUAUGAACC` | PJA2 | -0.3847 |
| 61 | `UAGUGCACUGUAUAAAUCC` | CPVL | 1.481 |
| 62 | `UCAGUUUCCCAAUAGAUCU` | CAPN8 | -0.3181 |
| 63 | `UAAUAGGCAGGCAUUAAGU` | CYP21A2 | 0.3065 |
| 64 | `UUCUUGUCAUGCAGCGUGC` | CFAP58 | -0.1607 |
| 65 | `UUCCGGAAACAUCAAACUC` | ZNF407 | 0.3898 |
| 66 | `UUCCGGAUGUAGAUCUUCC` | KCNQ1 | 0.4555 |

Repeated from the top, 8 entries:

AGUGGAACCGAUACUUCCG against SPDYE10P read seed-corrected z-score -0.6218.
UUAAGAUUAGUGGUAACUG against C8orf59 read seed-corrected z-score -0.5906.
UGUUGAUCACCUCUUUCCC against RNASEH1 read seed-corrected z-score -1.311.
UCAGGUCAUACAGGUAGUG against UNC93B1 read seed-corrected z-score 0.2255.
UGAUAUACUCGGAUGGACC against SH2B1 read seed-corrected z-score 0.2045.
UUGGAGUUUAUUUUCCGCU against PPDPF read seed-corrected z-score 0.9827.
UGACUUAUCACUGUAUCAC against PTGR2 read seed-corrected z-score -0.1189.
AAUGUGAACAACAUUCCCG against RPL22L1 read seed-corrected z-score -0.2831.

From PubChem BioAssay record AID1159506 (NCATS, 2015).